According to patent publication US11419868B2, “Low dose product and method for treating diarrhea” (MAREGADE RX, LLC, priority 2016, dated 2022):

System: acetic acid-induced colonic hypersensitivity
Settings: famotidine 0.6 mg/kg, cetirizine 0.25 mg/kg, each alone, oral twice daily 3.5 days; FIG. 7

**Q.** With `O=C(O)COCCN1CCN(C(c2ccccc2)c2ccc(Cl)cc2)CC1` (stereo not shown) [cetirizine] as the compound, how does the “inhibition of acetic acid-induced colonic hypersensitivity” value read?
**A.** The value was “not either drug alone, induced a significant inhibition”.
